Measurements published in PubChem BioAssay AID493014 (National Center for Advancing Translational Sciences (NCATS), 2011).
Where “and” joins values, the source holds several entries; their conditions need not be identical. Identical values can stand only once. Some of the results follow. Further columns of the screen follow, without active or inactive calls. Compounds called inactive in the main read-out are mostly missing here. Words in brackets tell the shape of the fitted curve; partial curves, single points and poor fits give uncertain potencies.

Test: qHTS Assay to Find Inhibitors of Chronic Active B-Cell Receptor Signaling
Details: ABC-DLBCL IkBa-CBG/CBR reporter, luminescence ratio (green luciferase fused to IkBa over red control in TMD8 lymphoma cells), 4 h
Outline: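 Doxycycline induced both beetle luciferases in TMD8 lymphoma cells; IKK-driven degradation limits the IkappaBalpha-fused green signal, while red luminescence normalises for cell number and nonspecific effects. Compounds tested up to 46 uM, 4 hrs.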

[1] = measured here: CBR red luminescence, cell number
[2] = measured here: IkBa-CBG green luminescence

Compound	AC50 [1]	AC50 [2]
COc1ccc(C(Nc2ccccn2)c2c(NC(=O)c3ccco3)sc(C)c2C)cc1 (stereo not given)	0.103 µM [rising, full curve, poor fit]	–
Cc1ccccc1CNC(=O)Nc1ccc(Cl)cc1	25.1 µM [falling, partial curve, poor fit]	–
Cn1c(-c2ccc3nc(N)sc3c2)nc2cc(N)ccc21	10.3 µM [falling, partial curve, poor fit]	–
CCCN(CCC)C(=O)c1oc2ccccc2c1NC(=O)Cc1cccc(OC)c1	3.98 µM [rising, full curve, poor fit]	–
C=CCNC(=S)NNC(=O)c1ccc2c(c1)OCO2	20 µM [falling, single point]	–
COc1cccc(-c2nc(N3CCN(C)CC3)c3ccccc3n2)c1O	–	14.1 µM [rising, partial curve, poor fit]
COc1ccc(OC(=O)CCc2c[nH]c3ccccc23)cc1	0.224 µM [rising, full curve, poor fit]	–
Cc1ccc2nc(-c3ccc(NC(=O)C4CCCO4)cc3)[nH]c2c1 (stereo not given)	2.59 µM [falling, full curve]	–
CCOc1cc(C2C(C#N)=C(N)Oc3n[nH]c(CC)c32)ccc1OCCN1CCOCC1 (stereo not given)	18.4 µM [falling, partial curve, poor fit]	–
Cc1cccc(C)c1NC(=O)N1C(C(=O)O)CSC1C(=O)O (stereo not given)	29.1 µM [falling, single point]	–
O=C(O)c1ccc(N=NN2CCOCC2)cc1	9.2 µM [falling, partial curve]	–
O=C(COC(=O)c1ccc(NS(=O)(=O)c2cccs2)cc1O)Nc1ccc(F)cc1	22.4 µM [falling, single point]	–
COc1cccc(-n2c(SCC(=O)NCCC3=CCCCC3)nc3n[nH]c(C)c3c2=N)c1	14.1 µM [falling, partial curve, poor fit]	–
O=C(C[n+]1ccc(C(=O)NCc2ccccc2)cc1)c1ccc2c(c1)OCCO2	17.8 µM [falling, partial curve, poor fit]	–
Nc1[nH]n(-c2ccccc2)c(=O)c1N=Nc1ccccc1[N+](=O)[O-]	0.231 µM [falling, full curve]	–
Cn1nccc1C(=O)Nc1ccccc1C(=O)O	10 µM [falling, partial curve, poor fit]	–
Cc1ccnc2nc(C(=O)N3CCN(S(=O)(=O)c4ccccc4)CC3)nn12	35.5 µM [rising, single point]	–
O=C(NNC1=Nc2ccccc2SC1)c1ccccc1F	14.1 µM [falling, partial curve]	–
CCN(CC)Cc1cc(Nc2ccnc3cc(Cl)ccc23)ccc1O	8.91 µM [falling, partial curve, poor fit] and 20.6 µM [falling, partial curve, poor fit]	–
O=c1c2ccccc2n2cnnc2n1-c1ccccc1	6.31 µM [rising, partial curve, poor fit]	–
Cn1c(N)c(C(=O)COC(=O)C2(c3cccc(F)c3)CCCC2)c(=O)n(C)c1=O	0.562 µM [falling, full curve, poor fit]	–
Cc1ccc(NC(=O)CSc2nnc(COc3ccccc3C)o2)cc1	3.55 µM [falling, partial curve, poor fit]	–

Compound	AC50 [1]	AC50 [2]
O=S(=O)(NC1CCCCC1)c1ccc(Cl)s1	0.00651 µM [falling, full curve, poor fit]	–
CC(c1ccccc1)N1C(=O)c2ccccc2C1O (stereo not given)	10.3 µM [rising, partial curve, poor fit]	–
CCn1c(C)nc2cc(C(=O)N/N=C(\C)c3ccc(N4CCOCC4)cc3)ccc21	35.5 µM [rising, single point]	–
Brc1ccc(-c2ccc(CNCc3ccccn3)o2)cc1	17.8 µM [rising, partial curve, poor fit]	–
COCC(=O)O[C@]1(CCN(C)CCCc2nc3ccccc3[nH]2)CCc2cc(F)ccc2[C@@H]1C(C)C	11.2 µM [falling, partial curve]	–
CC(=O)NC(N(C#N)c1nc(Cl)nc(N(C)C)n1)C(Cl)(Cl)Cl (stereo not given)	12.6 µM [rising, partial curve]	–
Oc1ccc(CNc2ccccc2O)cc1	1.16 µM [falling, full curve, poor fit]	–
O=S(=O)(c1ccc(-c2cc(C(F)(F)F)on2)s1)N1CCCC1	3.16 µM [falling, single point]	–
CC(C)CNc1ncnc2c1cnn2Cc1ccc(Cl)cc1	2.82 µM [rising, partial curve]	–
CCc1nnc(NC(=O)CSc2nnc(C(C)NC(=O)c3ccccc3F)n2C)s1 (stereo not given)	3.16 µM [rising, full curve]	–
COc1ccc(CCn2c(=N)c(C(=O)NCC3CCCO3)cc3c(=O)n4ccccc4nc32)cc1OC (stereo not given)	0.794 µM [falling, partial curve, poor fit]	–
Cc1cc(-c2ccccc2)n2nc(C)c(-c3ccccc3)c2n1	0.708 µM [rising, full curve]	–
COc1ccc2sc(-c3ccccc3OC)c(-c3ccc(OC)c(F)c3)c2c1	23.1 µM [rising, single point]	–
O=C(NNc1c2ccccc2nc2ccccc12)c1ccc(O)cc1O	25.1 µM [falling, single point]	–
CN(CCOc1ccc(-c2ccn(S(=O)(=O)c3cccc4ccccc34)n2)cc1)c1ccccn1	0.0291 µM [rising, full curve, poor fit]	–
CN(C)c1ccc(/C=N/NC(=O)c2cc(-c3ccc4c(c3)OCO4)n[nH]2)cc1	31.6 µM [rising, single point]	–
Cc1c(C(=O)O)sc2nc(/C=C/c3ccccc3OC(F)F)[nH]c(=O)c12	1.41 µM [falling, full curve]	–
CCOC(=O)COc1ccc(/C=C2/SC(=Nc3ccccc3)N(Cc3cccnc3)C2=O)cc1OC	18.4 µM [rising, partial curve]	–
CCCC(O)(CCC)C(=O)NN(C(=O)CCl)c1cccc(C)c1	20.6 µM [falling, single point]	–
Cc1ccc(NC(=S)NCCSc2ccc(Cl)cc2)c(C)c1	23.1 µM [falling, single point]	–
C=CCOc1cccc(NC(=O)c2ccccc2SC)c1	31.6 µM [rising, single point]	–
CC(C)N1CCC2(CC1)N=C(c1ccc3c(c1)OCO3)CC(c1cc(Cl)ccc1O)N2 (stereo not given)	18.4 µM [falling, single point]	–

Compound	AC50 [1]	AC50 [2]
O=C(CSc1nc(=O)n(CCN2CCOCC2)c2c1CCCC2)Nc1cccc([N+](=O)[O-])c1	7.31 µM [rising, partial curve, poor fit]	–
Cc1ccsc1/C=C1\Oc2cc(OCC(=O)c3ccccc3)ccc2C1=O	2.59 µM [rising, full curve]	–
Cc1ccc(NS(=O)(=O)c2cc(C(=O)Nc3cccc(N(C)S(C)(=O)=O)c3)ccc2C)c(C)c1	18.4 µM [falling, single point]	–
COc1ccc(/C(N)=N/OC(=O)CCc2ccccc2)cc1OC	20 µM [rising, single point]	–
NS(=O)(=O)c1cccc(NC(=O)c2cncc(Br)c2)c1	17.8 µM [falling, single point]	–
O=C(COC(=O)CNC(=O)C1CCCCC1)Nc1cc(C(F)(F)F)ccc1Cl	29.1 µM [rising, single point]	–
CCc1cc(=O)oc2cc(OCC(=O)OC)c(Cl)cc12	7.31 µM [rising, single point]	–
Cc1csc(N/N=C/c2ccc(O)c([N+](=O)[O-])c2)n1	11.6 µM [falling, partial curve, poor fit]	–
Cc1cc2ccccn2c1C(=O)c1ccccc1Br	0.501 µM [rising, full curve, poor fit]	–
COn1c(=O)c(-c2ccc(F)cc2)[n+]([O-])c2ccccc21	6.31 µM [rising, single point]	–
COc1cccc(NC(=O)C2Cc3ccccc3CN2C(=O)c2ccco2)c1 (stereo not given)	0.501 µM [falling, partial curve]	–
Cc1ccc(C(=O)OCn2ncc(Cl)c(Cl)c2=O)cc1	4.47 µM [falling, full curve, poor fit]	11.2 µM [rising, partial curve, poor fit]
COc1ccc(Cl)cc1NC(=O)c1c(NCc2cccs2)sc2c1CCCC2	4.47 µM [rising, full curve, poor fit]	–
O=Cc1ccccc1OCCOc1ccc([N+](=O)[O-])cc1	35.5 µM [rising, single point]	–
O=C(O)c1ccc(NC(=O)c2cn(-c3ccccc3)nc2-c2ccccc2)cc1	25.1 µM [falling, single point]	–
C/C(=N\NC(=O)c1ccc(Br)cc1)c1ccccc1	11.2 µM [falling, single point]	–
CCN(Cc1ccc(OC)c(F)c1)C(=O)c1oc2ccccc2c1COC	7.94 µM [rising, partial curve, poor fit]	–
CC(C)(C)N1C(=O)[C@H]2[C@@H](c3ccc(Br)cc3)N3C(=O)N(c4ccc(Br)cc4)C(=O)[C@@]3(Cc3ccccc3)[C@H]2C1=O	2.51 µM [falling, full curve, poor fit]	–
CCC1SC(=Nc2cccc(C)c2)NC1=O (stereo not given)	25.1 µM [falling, partial curve]	–
CN(Cc1ccccc1Cl)C(=O)c1cnccc1C(F)(F)F	5.01 µM [rising, full curve, poor fit]	–
